Laboratory results: PubChem BioAssay AID602196 (INSERM, 2012)

Test: 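Knock-downs that protect lung cancer cells from cisplatin or sensitise them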
System: human A549 lung cancer cells
Reagents: siRNA pair against human genes
Timing: 48 h transfection before cisplatin; time from cisplatin to read-out not stated
Conditions: cisplatin at a dose killing half of control-siRNA cells; exact dose and duration not given
Measured: 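Shift in cisplatin death relative to control siRNA, from -50 (all cells die) to +50 (no cells die); siRNAs harmful on their own scored 0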
Direction: two-siRNA summed score (-2 to +2): higher = both siRNAs protect from cisplatin killing; -2 means both sensitise; mean protection from cisplatin (shift in death): higher = protection from cisplatin killing
Active means: 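Each siRNA scores 0 if harmful alone by LDH or WST-1, otherwise +1 if it reduces and -1 if it increases cisplatin killing; a gene is active when both siRNAs agree (sum +2 or -2)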
Calls: active = both siRNAs shift cisplatin killing the same way; inactive = no consistent shift, or siRNA harmful alone
Here is a random part of about 23,000 reagents. Over the whole deposit, 455 (2%) got an active call. 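Active includes both protection and sensitisation; some change values fall well beyond the stated -50 to +50 range.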 Not all columns of the deposit are shown. No sequences are given here. Not stated in the record: the amount of reagent.

VN1R2: two-siRNA summed score (-2 to +2) = -1; mean protection from cisplatin (shift in death) (%) = -0.5; activity call = inactive
LOC220793: two-siRNA summed score (-2 to +2) = 0; mean protection from cisplatin (shift in death) (%) = 9; activity call = inactive
TUBB7P: two-siRNA summed score (-2 to +2) = 0; mean protection from cisplatin (shift in death) (%) = -11.9; activity call = inactive
LOC440113: two-siRNA summed score (-2 to +2) = 0; mean protection from cisplatin (shift in death) (%) = 8.6; activity call = inactive
CENPN: two-siRNA summed score (-2 to +2) = 0; mean protection from cisplatin (shift in death) (%) = -10.3; activity call = inactive
SLC25A5: two-siRNA summed score (-2 to +2) = 0; mean protection from cisplatin (shift in death) (%) = -6.6; activity call = inactive
KLF9: two-siRNA summed score (-2 to +2) = 0; mean protection from cisplatin (shift in death) (%) = -7.3; activity call = inactive
ITCH: two-siRNA summed score (-2 to +2) = 1; mean protection from cisplatin (shift in death) (%) = 26.7; activity call = inactive
KDR: two-siRNA summed score (-2 to +2) = 0; mean protection from cisplatin (shift in death) (%) = 7.1; activity call = inactive
FZD7: two-siRNA summed score (-2 to +2) = -1; mean protection from cisplatin (shift in death) (%) = -8.9; activity call = inactive
LOC285429: two-siRNA summed score (-2 to +2) = 0; mean protection from cisplatin (shift in death) (%) = -2.5; activity call = inactive
DOK2: two-siRNA summed score (-2 to +2) = 0; mean protection from cisplatin (shift in death) (%) = 7.1; activity call = inactive
FARP2: two-siRNA summed score (-2 to +2) = 0; mean protection from cisplatin (shift in death) (%) = 15.5; activity call = inactive
NAPRT: two-siRNA summed score (-2 to +2) = 0; mean protection from cisplatin (shift in death) (%) = -5.1; activity call = inactive
AASS: two-siRNA summed score (-2 to +2) = -1; mean protection from cisplatin (shift in death) (%) = -13.5; activity call = inactive
WDSUB1: two-siRNA summed score (-2 to +2) = 0; mean protection from cisplatin (shift in death) (%) = 10.6; activity call = inactive
NONO: two-siRNA summed score (-2 to +2) = -1; mean protection from cisplatin (shift in death) (%) = -15.2; activity call = inactive
DNMT3A: two-siRNA summed score (-2 to +2) = 0; mean protection from cisplatin (shift in death) (%) = 5.2; activity call = inactive
HNRNPM: two-siRNA summed score (-2 to +2) = 0; mean protection from cisplatin (shift in death) (%) = -9.3; activity call = inactive
ZSWIM1: two-siRNA summed score (-2 to +2) = 0; mean protection from cisplatin (shift in death) (%) = 6.6; activity call = inactive
IGFL2: two-siRNA summed score (-2 to +2) = 0; mean protection from cisplatin (shift in death) (%) = 6.8; activity call = inactive

2 neighbouring entries already listed, quoted:
ZSWIM1: two-siRNA summed score (-2 to +2) = 0; mean protection from cisplatin (shift in death) (%) = 6.6; activity call = inactive
IGFL2: two-siRNA summed score (-2 to +2) = 0; mean protection from cisplatin (shift in death) (%) = 6.8; activity call = inactive
